Data source: PubChem BioAssay AID1224828 (NIAID, 2016)
In all, the deposit lists about 17,000 reagents; this is an unselected part. 762 of all reagents (4.5%) count as active. 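Active calls include both raised and lowered p65 entry, mostly lowered; wells with fewer than 50 cells lack a z-score.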 The raw values are shown without normalisation. Entries without a mark were called inactive.

Purpose: 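Regulators linking TLR4 signalling to p65 nuclear translocation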 (primary screen)
Cell system: mouse RAW264.7 G9 macrophage reporter cells (GFP-p65, Tnf promoter-mCherry)
Knock-down reagent: siRNA pool against mouse genes, 100 nM
Time to read-out: 2 days siRNA transfection, then 40 min LPS before fixation
Conditions: LPS (Salmonella minnesota R595) at 10 ng/ml
Read-out: 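Imaged p65 nuclear translocation ratio, normalised to the plate median, converted to robust z-scores and averaged across two replicates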
Scale: p65 translocation robust z-score: higher = more nuclear NF-kappaB p65 after LPS than the plate median; nuclear/cytoplasmic p65 ratio: higher = more nuclear NF-kappaB p65
Rule for the call: 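Active if robust z is above 3.3 (negative regulators) or below -1.56, the Tlr4 control median (positive regulators); activity score 50 or more; control wells not called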
Calls: active = hit (p65 shift raised or lowered); inactive = no clear change

Knock-down of Szt2 came out at: p65 translocation robust z-score 0.76; nuclear/cytoplasmic p65 ratio, rep 1 = 1.45; nuclear/cytoplasmic p65 ratio, rep 2 = 1.63; low cell count flag enough cells to score. With knock-down of Ttf2, the record shows p65 translocation robust z-score -1.32; nuclear/cytoplasmic p65 ratio, rep 1 = 1.37; nuclear/cytoplasmic p65 ratio, rep 2 = 1.28; low cell count flag enough cells to score. With knock-down of Pax4 the results were p65 translocation robust z-score -1.36; nuclear/cytoplasmic p65 ratio, rep 1 = 1.22; nuclear/cytoplasmic p65 ratio, rep 2 = 1.27; low cell count flag enough cells to score. After knock-down of Bicdl2, the screen gave p65 translocation robust z-score 4.19 (active); nuclear/cytoplasmic p65 ratio, rep 1 = 1.92; nuclear/cytoplasmic p65 ratio, rep 2 = 2.19; low cell count flag enough cells to score. With knock-down of Fndc10, the screen gave p65 translocation robust z-score 0.89; nuclear/cytoplasmic p65 ratio, rep 1 = 1.72; nuclear/cytoplasmic p65 ratio, rep 2 = 1.98; low cell count flag enough cells to score. Against Tgm4, the values are nuclear/cytoplasmic p65 ratio, rep 1 = 1.31; nuclear/cytoplasmic p65 ratio, rep 2 = 1.48; low cell count flag fewer than 50 cells per well; well left out of scoring.

Aspm showed p65 translocation robust z-score 0.45; nuclear/cytoplasmic p65 ratio, rep 1 = 1.65; nuclear/cytoplasmic p65 ratio, rep 2 = 1.72; low cell count flag enough cells to score. For Tgfa, the entry reads p65 translocation robust z-score 0.56; nuclear/cytoplasmic p65 ratio, rep 1 = 1.49; nuclear/cytoplasmic p65 ratio, rep 2 = 1.7; low cell count flag enough cells to score. Against Cert1, the entry reads p65 translocation robust z-score 0.41; nuclear/cytoplasmic p65 ratio, rep 1 = 1.75; nuclear/cytoplasmic p65 ratio, rep 2 = 1.44; low cell count flag enough cells to score. For Dnah5, the entry reads p65 translocation robust z-score -1.52; nuclear/cytoplasmic p65 ratio, rep 1 = 1.24; nuclear/cytoplasmic p65 ratio, rep 2 = 1.21; low cell count flag enough cells to score. After knock-down of Sult3a1 the results were nuclear/cytoplasmic p65 ratio, rep 1 = 0; nuclear/cytoplasmic p65 ratio, rep 2 = 1.14; low cell count flag fewer than 50 cells per well; well left out of scoring. Htr2a showed nuclear/cytoplasmic p65 ratio, rep 1 = 1.3; nuclear/cytoplasmic p65 ratio, rep 2 = 1.44; low cell count flag fewer than 50 cells per well; well left out of scoring.

After knock-down of Or10a3 the results were nuclear/cytoplasmic p65 ratio, rep 1 = 1.57; nuclear/cytoplasmic p65 ratio, rep 2 = 1.18; low cell count flag fewer than 50 cells per well; well left out of scoring. After knock-down of Map2k5 the results were p65 translocation robust z-score 1.41; nuclear/cytoplasmic p65 ratio, rep 1 = 1.8; nuclear/cytoplasmic p65 ratio, rep 2 = 1.64; low cell count flag enough cells to score.

2 neighbouring records already listed, quoted:
Sult3a1 — nuclear/cytoplasmic p65 ratio, rep 1 = 0; nuclear/cytoplasmic p65 ratio, rep 2 = 1.14; low cell count flag = fewer than 50 cells per well; well left out of scoring
Htr2a — nuclear/cytoplasmic p65 ratio, rep 1 = 1.3; nuclear/cytoplasmic p65 ratio, rep 2 = 1.44; low cell count flag = fewer than 50 cells per well; well left out of scoring
